Measured values: PubChem BioAssay AID1508600 (Functional Genomics Laboratory (NCATS/FGL), 2020)
In all, about 53,000 sequences went through this assay and about 3,700 (7%) were called active.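 Rule for the calls: active = gene knockdowns whose robust z-score for IL-1 alpha signal is at least 2 or at most -2, so actives lie on both sides; inactive = the rest.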 Some of the results follow.

Experiment: Components of the Cytosolic LPS Sensing Pathway: Gene Identification via Genome-wide siRNA Screen;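 note: robust z of the log signal after scaling to non-targeting control siRNA wells of the plate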
Settings: RAW264.7 macrophages, IL-1a HTRF, actives lie on both sides, screened at 100 nM (by protocol), cells primed 5 h with Pam3CSK4 first
Outline: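 IL-1a HTRF of supernatants after 24 hour LipidA transfection of Pam3CSK4-primed (5 hours) RAW264.7 cells, 48h post-siRNA transfection (100 nM). Scores: percent of plate negative-control median, then log-based robust z-score.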

Row | Sequence | z-score
1 | GGUGUCCAGCAUUUACAUCTT against Agtr2 | inactive: 0.778
2 | GGGAGCAUCAUGUGAAGAATT against Dnajc5b | inactive: 0.173
3 | GGGAACUUUAGCUUAAAUUTT against Lypd6 | inactive: 0.135
4 | GCACAGGUAAUUUGUAAUGTT against Btbd3 | inactive: -0.488
5 | CCGUGUCAUCUUGAAAAUUTT against Mtrr | inactive: -0.782
6 | GGAAAAGGAGGUGGUACUGTT against Acan | inactive: 0.743
7 | GCUGAACGAUGACUAUCCCTT against Cryba4 | active: 2.2
8 | GCAGUCUUUUGGAUAGGUUTT against Ccni | inactive: 0.86
9 | GUCACUAUUAAGACACUUATT against Nudcd3 | inactive: 0.157
10 | CGCGAGAAGACGAAUUCUCTT against Pknox1 | inactive: 1.29
11 | GCUCUCUCUCAUUGAUCUCTT against Olfr697 | inactive: -1.63
12 | GGUGAAAGCUGUUAUCGAATT against Il25 | inactive: 0.359
13 | GGAAGUGGACAUCACCAUGTT against Sh3bgrl2 | inactive: -1.14
14 | GGAAGGUCUGCUAUAAGUATT against Ifi30 | inactive: 0.904
15 | GGGCCAAAGGAAACAGCACTT against Slc24a5 | inactive: -0.854
16 | GCUUCGAUCGCUGGAAUGUTT against Dctn4 | inactive: 1.33
17 | CCAGGAUCCUUCUAAGUGCTT against Tes | inactive: -0.594
18 | CCAUCAUCCCUAGAUACCCTT against Muc20 | inactive: -1.31
19 | GGACUUUACAAUAAAACAGTT against Dkk4 | active: -2.2
20 | GGCCAAGAAACAUGCCCUATT against Pbx2 | inactive: 0.168
21 | CCCUGAUUCAUACGACUGATT against Ctdp1 | inactive: -0.21
22 | GGUGUUUACUUCCUCAGAATT against Slc9b2 | inactive: -0.373
23 | GGAACAGAACCACUACCUGTT against Slc39a5 | inactive: 1.39
24 | GGCCGAAACUUCGUUUAUATT against Med17 | inactive: -1.95
25 | GGUGUAUGGACCAUUUUAUTT against Tcp11l2 | inactive: 0.221
26 | GGACAAGUUUCAGUGACCCTT against Zdhhc9 | inactive: -1.87
27 | GGAACAGGCCACCAUUGAATT against Mrps7 | inactive: 1.44

Row | Sequence | z-score
28 | GGCUACGAGUCCUCUGAAGTT against Saraf | inactive: -1.71
29 | GGAGACACUCGUCCUUUAUTT against Cyp20a1 | inactive: -1.27
30 | GCAACUUUAUAGCAGAAUCTT against Apbb3 | inactive: -0.874
31 | GGGUGGUGUCUUCAAGUCATT against Nat3 | inactive: 0.129
32 | GGUUUGCCUGCUGAUGACATT against Olfr883 | inactive: -1.83
33 | CCAUUCCAAAGGUAUUAGCTT against Olfr619 | inactive: -0.244
34 | GGAGAUCUGAAUGAAAAUUTT against Zfp280b | inactive: -0.738
35 | GGGAAAUUAUUACCAAAAGTT against N4bp1 | inactive: -0.83
36 | GGCUACGUUUUUGUAUUCUTT against Slc35d2 | inactive: -0.31
37 | GGAACUUUGUCUUUCAUACTT against Clspn | inactive: 0.0704
38 | CCGAAGUUAAGACAAAGAATT against Ankrd36 | inactive: 0.992
39 | CCCAUUAUGGAGCUAGAAATT against Arid4b | inactive: -0.846
40 | GCUCAUGUGACUAUUGUUATT against Olfr1512 | inactive: -0.0798
41 | GGAACAUGUCGUAAAUAAGTT against Trim7 | inactive: 0.0785
42 | GGAAAUUUUUCCCAGCUGGTT against Prl8a8 | inactive: -0.169
43 | GAACGCGCGAGAAAUGUGATT against Odf3b | inactive: 0.573
44 | GCCGUCUUUACAUUCCUGATT against Olfr605 | inactive: 0.8
45 | CCAUUUAUCCUCUUUUCCGTT against Plekhb1 | inactive: -1.83
46 | CCCAGUGGUUUUAAAGCAUTT against Commd3 | inactive: -1.64
47 | GCCGAGGACCACAUUAAAGTT against Crtap | inactive: 0.241
48 | GGAACAACUUCGUACCAUGTT against Zbbx | inactive: 0.865
49 | GCCGUGAUCGACUUGAAUATT against U2af1 | inactive: 0.763
50 | GGGAGACUAUCCUUGCUGGTT against Cryba2 | inactive: -0.139
51 | GGACAUCUGGGAAUACCUCTT against Actl7a | inactive: 0.129
52 | GCAGUUAAAUGGACUAUCATT against Paip2b | inactive: 0.589
53 | GGUGGGAAUGGGAAUCAGUTT against Akr1e1 | inactive: 0.334
54 | GGUGAAACUGAAUAAAAUCTT against 4931406C07Rik | inactive: -1.46

A different layout for some results above.
GGUUUGCCUGCUGAUGACATT against Olfr883
  z-score: inactive: -1.83
GCUCAUGUGACUAUUGUUATT against Olfr1512
  z-score: inactive: -0.0798
